Results deposited as PubChem BioAssay AID1224828 (NIAID, 2016)
Shown is one part, drawn at random, of about 17,000 deposited reagents. Over the whole deposit, 762 (4.5%) were called active. 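Active calls include both raised and lowered p65 entry, mostly lowered; wells with fewer than 50 cells lack a z-score.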 Raw values are not corrected between plates. No sequences are given here.

Purpose: 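Find genes required for NF-kappaB p65 moving into the nucleus after LPS in mouse macrophages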 (primary screen)
Cell system: mouse RAW264.7 G9 macrophage reporter cells (GFP-p65, Tnf promoter-mCherry)
Reagents: siRNA pool against mouse genes, 100 nM
Duration: 2 days siRNA transfection, then 40 min LPS before fixation
Conditions: LPS (Salmonella minnesota R595) at 10 ng/ml
Measurement: 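Microscopy ratio of nuclear to perinuclear-ring GFP-p65 signal, scaled to the plate median; gene score is the average of two replicate robust z-scores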
Reading the numbers: p65 translocation robust z-score: higher = more nuclear NF-kappaB p65 after LPS than the plate median; nuclear/cytoplasmic p65 ratio: higher = more nuclear NF-kappaB p65
Active means: 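Active if robust z is above 3.3 (negative regulators) or below -1.56, the Tlr4 control median (positive regulators); activity score 50 or more; control wells not called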
Meaning of the calls: active = hit (p65 shift raised or lowered); inactive = no clear change

gene | p65 translocation robust z-score | nuclear/cytoplasmic p65 ratio, rep 1 | nuclear/cytoplasmic p65 ratio, rep 2 | low cell count flag | call
Lrrtm1 | 0.65 | 1.67 | 1.76 | enough cells to score | inactive
Nlrp3 | -1.29 | 1.32 | 1.19 | enough cells to score | inactive
Card11 | 0.3 | 1.7 | 1.76 | enough cells to score | inactive
Lcp1 | 0.16 | 1.62 | 1.41 | enough cells to score | inactive
Hmbs | 0.32 | 1.44 | 1.43 | enough cells to score | inactive
Dctn3 | -0.14 | 1.49 | 1.33 | enough cells to score | inactive
Man2c1 | 0.84 | 1.63 | 1.38 | enough cells to score | inactive
Rfk | -1.9 | 1.36 | 1.16 | enough cells to score | active
Fastkd1 | 0.52 | 1.46 | 1.5 | enough cells to score | inactive
Eef1e1 | – | 1.4 | 1.33 | fewer than 50 cells per well; well left out of scoring | inactive
Lats2 | 0.78 | 1.39 | 1.47 | enough cells to score | inactive
Serpinb1c | -1.69 | 1.18 | 1.12 | enough cells to score | active
Lgsn | -0.05 | 1.37 | 1.42 | enough cells to score | inactive
Cd226 | – | 1.49 | 1.45 | fewer than 50 cells per well; well left out of scoring | inactive
Phc1 | 0.68 | 1.71 | 1.39 | enough cells to score | inactive
Ndufa5 | -1.57 | 1.47 | 1.4 | enough cells to score | active
Mageh1 | 0.36 | 1.72 | 1.61 | enough cells to score | inactive
Slc9a8 | -0.27 | 1.2 | 1.2 | enough cells to score | inactive
Kl | 1.02 | 1.73 | 1.54 | enough cells to score | inactive
Zscan29 | 0.66 | 1.58 | 1.68 | enough cells to score | inactive
Pcdhgb6 | – | 1.33 | 0.932 | fewer than 50 cells per well; well left out of scoring | inactive
Ppm1d | 0.71 | 1.57 | 1.53 | enough cells to score | inactive
Cul4b | -0.77 | 1.45 | 1.21 | enough cells to score | inactive
Srm | -1.17 | 1.35 | 1.42 | enough cells to score | inactive
Slc7a3 | 0.25 | 1.43 | 1.28 | enough cells to score | inactive
Trpm8 | 0.52 | 1.6 | 1.56 | enough cells to score | inactive
Zfp940 | -0.99 | 1.49 | 1.6 | enough cells to score | inactive
Tubb5 | 0.28 | 1.65 | 1.45 | enough cells to score | inactive
Or5k8 | -0.82 | 1.48 | 1.29 | enough cells to score | inactive
Trim7 | 2.49 | 1.72 | 1.51 | enough cells to score | inactive
BC107364 | 1.35 | 1.85 | 1.66 | enough cells to score | inactive
Phax | -2 | 1.12 | 1.06 | enough cells to score | active
Uchl1 | 1.3 | 1.68 | 1.7 | enough cells to score | inactive
Stkld1 | 0.21 | 1.72 | 1.42 | enough cells to score | inactive
Apbb2 | 0.91 | 1.59 | 1.78 | enough cells to score | inactive
Chrm1 | 0.4 | 1.74 | 1.45 | enough cells to score | inactive
Pdcd7 | – | 1.34 | 1.23 | fewer than 50 cells per well; well left out of scoring | inactive
Ddx1 | 0.1 | 1.59 | 1.59 | enough cells to score | inactive
Nbeal1 | 0 | 1.28 | 1.53 | enough cells to score | inactive
Trrap | -1.41 | 1.41 | 1.45 | enough cells to score | inactive
Prpf8 | -0.05 | 1.38 | 1.5 | enough cells to score | inactive
Etv6 | 0.83 | 1.52 | 1.52 | enough cells to score | inactive
Ncbp3 | -0.22 | 1.36 | 1.4 | enough cells to score | inactive
Eral1 | 0.56 | 1.5 | 1.48 | enough cells to score | inactive
Mzt1 | 1.79 | 1.67 | 1.66 | enough cells to score | inactive
Slc12a2 | 0.17 | 1.45 | 1.63 | enough cells to score | inactive
Avpr2 | -1.48 | 1.28 | 1.38 | enough cells to score | inactive
Dbnl | 0.3 | 1.52 | 1.4 | enough cells to score | inactive
Nlrp4f | 0.54 | 1.51 | 1.59 | enough cells to score | inactive
Erc2 | 0.43 | 1.5 | 1.44 | enough cells to score | inactive
Hibadh | 1.25 | 1.56 | 1.73 | enough cells to score | inactive
Mms22l | 0.1 | 1.68 | 1.41 | enough cells to score | inactive
Asb6 | -0.53 | 1.4 | 1.56 | enough cells to score | inactive
Cacybp | 0.42 | 1.71 | 1.79 | enough cells to score | inactive
Erp29 | -1.84 | 1.34 | 1.19 | enough cells to score | active
Or5ak24 | -2.06 | 1.16 | 1.08 | enough cells to score | active
E130016E03RIK | -0.75 | 1.34 | 1.29 | enough cells to score | inactive
Hbq1a | -0.56 | 1.49 | 1.56 | enough cells to score | inactive
Coa6 | – | 1.22 | 1.29 | fewer than 50 cells per well; well left out of scoring | inactive
